Measurements published in article PMC6958661, “Regulatory Role of PlaR (YiaJ) for Plant Utilization in Escherichia coli K-12” (Scientific Reports, 2019).

Molecular target: T1, PlaR (YiaJ) (Escherichia coli K-12) (UniProt P37671)
T1 sequence (looked up): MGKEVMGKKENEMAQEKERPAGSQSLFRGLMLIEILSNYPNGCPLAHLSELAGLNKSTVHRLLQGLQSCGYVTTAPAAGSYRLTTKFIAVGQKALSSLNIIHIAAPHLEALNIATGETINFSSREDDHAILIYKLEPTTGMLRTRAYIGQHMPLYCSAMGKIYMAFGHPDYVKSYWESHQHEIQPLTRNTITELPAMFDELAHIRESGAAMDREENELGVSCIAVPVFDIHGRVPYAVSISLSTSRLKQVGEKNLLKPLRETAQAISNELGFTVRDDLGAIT
Experiment: EMSA
Conditions: 10 mM Tris-HCl pH 7.8 (at 4 C), 150 mM NaCl, 3 mM Mg acetate, 37 C 20 min, 5% PAGE, GelRed stain, recombinant protein, residues 1-282, protein details: His-tag (pET21a(+), NdeI/NotI), probe letters rebuilt from the primers and the genome

CTCAAATCATCCTGCGTTCCCCACTGGCGCTTTTTAGGGCTGAATACAACCGCATCAGGATGGCGAGTTAAAAAATCCTGTTCATCCGTCTGCGTGTCCGGTTGCGAAGCGTCCGGACGAGAAGGTTTTTTATCTGACGGATCATGTTTTGATTTTACTGACGGATCCCCGCCAGATTCTGACGGGTGAAAACCCGATTTTTTGCCAGATTTCGACGCATCAAATTTTGACGGGTCAGATTTTGATGCGTCAGATTTTGACGGGTCAGAGTCTGACAGTTGAGAAAATGCCGCTGCCTGAAGCTTCGCAACGTTAAGCTGATAAACATTCGACGCATTGCGGTTATGATGAGGAGCAGCAAA (double strand) [yfdO/yfdP probe]
binding result (PlaR up to 5 uM): no binding

TTCGGGTTATTAGCGAAATCGCCGCCCATCTGCATCACATTGTGCTGCGGCTCAAGCAGGAAGCCGCCAGACGGCGTTCCGGTGGTCGTATCAGTCTCAGTAGGTTTTGGCTTGCTGCTACAGGCGGCAAGCAACACAAAAAGGGGAAGCAATGTTACATAACGACGCTTGAACATGAGGGGTCCATTTAACAGATTCAACCAGGGGCAAGTATGGTAAAGCATCACGCCCCGCACAAGGAAGCGGTAGTCACTGCCCGATACGGACTTTACATAACTCAACTCATTCCCCTCGCTATCCTTTTATTCAAACTTTCAAATTAAAATATTTATCTTTCATTTTGCGATCAAAATAACACTTTTAAATCTTTCAATCTGATTAGATTAGGTTGCCGTTTGGTAATAAAACAATAAATCCTGAAGGAGAGAACAATGATAGAAACCATTACTCATGGTGC (double strand) [mltB/srlA probe]
binding result (PlaR 1-5 uM, called low-affinity target): binds

TTTGTCGCGTCCTGATGGTAGCGCAAAGTGTGCCGTAGTTCACGATCTCGACAGATAATTTATAACCAATTGATTTTTATGTCTTTTGAAATTCATCAATCAGATTGCCTTGTTAAAAAGTGATCGATATATTTGAAATCAAGTTTCGCATATTGAAATTTTAAGCCAAAAAAGCGATCAAAAAAACAAGGAAGCCTGGGATGAAAGTGACATTTGAGCAGTTAAAAGCAGCCTTTAATCGGGTCTTAATTTCACGCGGCGTTGACAGCGAAACGGCTGACGCCTGTGCAGAGATGTTCGCCCGCACCACCGAATCCGGCGTTTATTCTCACGGCGTTAATCGTTTCCCTCGTTTCATTCAACAACTGGAAAACGGCGATATCATTCCTGATGCCCAACCCAAACGTATAACCAGCCTCGGCGCAATTGAACAGTGGGACGCCCAGCGTTCGATCGGTAACCTGACAGCGAAAAAGATGATGGATCGCGCCATTGAACTG (double strand) [plaR/yiaK probe]
binding result (10 mM D-glucuronate (no effect), PlaR 2.5 uM): binds
binding result (10 mM L-ascorbate, PlaR 2.5 uM): binds more weakly
binding result (10 mM alpha-D-galacturonate, PlaR 2.5 uM): binds more weakly
binding result (PlaR 1-5 uM, strongest of the probes): binds

No signal at the amounts used counts as a negative. Tags and fusion partners may be left off the protein sequences shown. For at least one entry, the source does not settle the construct or the ends of the probe. A weaker result is weaker than the reference pair of the same experiment.
